Measurements reported in the supplement of paper PMC10849652.
The other results are listed elsewhere or left out.

Chains of the proteins cited; added tags and fusions are not shown. Lines headed by an entry give the natural chain unless they say otherwise; changes in a name come on top.
UniProt O43674, whole entry, looked up: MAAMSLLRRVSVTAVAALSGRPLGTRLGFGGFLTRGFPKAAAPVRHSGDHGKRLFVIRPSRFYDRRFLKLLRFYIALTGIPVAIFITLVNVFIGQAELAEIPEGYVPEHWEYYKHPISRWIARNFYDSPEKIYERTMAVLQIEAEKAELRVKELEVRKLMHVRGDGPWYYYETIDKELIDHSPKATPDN
UniProt Q9Y375: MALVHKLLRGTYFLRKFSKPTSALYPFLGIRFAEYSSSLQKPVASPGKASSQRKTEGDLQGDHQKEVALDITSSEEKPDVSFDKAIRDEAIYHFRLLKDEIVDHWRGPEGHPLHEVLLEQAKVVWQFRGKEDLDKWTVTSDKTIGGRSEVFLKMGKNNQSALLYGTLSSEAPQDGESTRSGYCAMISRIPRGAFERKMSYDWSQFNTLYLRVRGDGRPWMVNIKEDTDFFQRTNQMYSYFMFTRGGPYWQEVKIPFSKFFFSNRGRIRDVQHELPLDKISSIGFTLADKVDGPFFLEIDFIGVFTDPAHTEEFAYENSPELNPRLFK
UniProt P28331, whole entry, looked up: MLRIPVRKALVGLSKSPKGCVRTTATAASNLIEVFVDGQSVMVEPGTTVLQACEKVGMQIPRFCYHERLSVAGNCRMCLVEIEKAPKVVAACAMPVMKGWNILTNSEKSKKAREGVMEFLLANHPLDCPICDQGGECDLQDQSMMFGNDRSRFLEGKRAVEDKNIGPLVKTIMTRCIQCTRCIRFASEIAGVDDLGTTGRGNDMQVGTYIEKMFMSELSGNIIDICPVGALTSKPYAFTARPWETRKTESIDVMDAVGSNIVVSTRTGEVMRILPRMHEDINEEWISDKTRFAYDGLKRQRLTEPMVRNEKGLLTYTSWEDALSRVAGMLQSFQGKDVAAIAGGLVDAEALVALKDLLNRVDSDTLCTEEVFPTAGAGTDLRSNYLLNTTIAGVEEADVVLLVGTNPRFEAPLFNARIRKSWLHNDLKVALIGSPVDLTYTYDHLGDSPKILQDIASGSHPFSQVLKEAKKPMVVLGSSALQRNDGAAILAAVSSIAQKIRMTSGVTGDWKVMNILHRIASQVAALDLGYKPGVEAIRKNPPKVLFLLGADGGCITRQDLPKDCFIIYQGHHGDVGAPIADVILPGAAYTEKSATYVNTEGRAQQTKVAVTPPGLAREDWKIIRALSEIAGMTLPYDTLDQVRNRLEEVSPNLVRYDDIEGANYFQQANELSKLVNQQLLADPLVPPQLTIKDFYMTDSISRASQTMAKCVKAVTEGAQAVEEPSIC
UniProt Q9NVX2: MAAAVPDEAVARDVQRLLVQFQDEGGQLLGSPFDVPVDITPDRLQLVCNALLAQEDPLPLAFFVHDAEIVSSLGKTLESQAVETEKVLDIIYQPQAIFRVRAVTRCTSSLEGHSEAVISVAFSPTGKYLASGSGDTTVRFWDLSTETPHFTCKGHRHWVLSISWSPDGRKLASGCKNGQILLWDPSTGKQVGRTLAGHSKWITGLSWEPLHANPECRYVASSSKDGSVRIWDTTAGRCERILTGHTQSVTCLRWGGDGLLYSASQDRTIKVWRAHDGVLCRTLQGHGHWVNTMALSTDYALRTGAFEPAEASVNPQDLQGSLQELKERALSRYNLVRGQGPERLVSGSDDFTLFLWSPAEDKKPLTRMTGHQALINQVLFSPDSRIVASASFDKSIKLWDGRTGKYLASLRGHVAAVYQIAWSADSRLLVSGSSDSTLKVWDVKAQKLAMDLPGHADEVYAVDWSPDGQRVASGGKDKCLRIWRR
UniProt Q13469: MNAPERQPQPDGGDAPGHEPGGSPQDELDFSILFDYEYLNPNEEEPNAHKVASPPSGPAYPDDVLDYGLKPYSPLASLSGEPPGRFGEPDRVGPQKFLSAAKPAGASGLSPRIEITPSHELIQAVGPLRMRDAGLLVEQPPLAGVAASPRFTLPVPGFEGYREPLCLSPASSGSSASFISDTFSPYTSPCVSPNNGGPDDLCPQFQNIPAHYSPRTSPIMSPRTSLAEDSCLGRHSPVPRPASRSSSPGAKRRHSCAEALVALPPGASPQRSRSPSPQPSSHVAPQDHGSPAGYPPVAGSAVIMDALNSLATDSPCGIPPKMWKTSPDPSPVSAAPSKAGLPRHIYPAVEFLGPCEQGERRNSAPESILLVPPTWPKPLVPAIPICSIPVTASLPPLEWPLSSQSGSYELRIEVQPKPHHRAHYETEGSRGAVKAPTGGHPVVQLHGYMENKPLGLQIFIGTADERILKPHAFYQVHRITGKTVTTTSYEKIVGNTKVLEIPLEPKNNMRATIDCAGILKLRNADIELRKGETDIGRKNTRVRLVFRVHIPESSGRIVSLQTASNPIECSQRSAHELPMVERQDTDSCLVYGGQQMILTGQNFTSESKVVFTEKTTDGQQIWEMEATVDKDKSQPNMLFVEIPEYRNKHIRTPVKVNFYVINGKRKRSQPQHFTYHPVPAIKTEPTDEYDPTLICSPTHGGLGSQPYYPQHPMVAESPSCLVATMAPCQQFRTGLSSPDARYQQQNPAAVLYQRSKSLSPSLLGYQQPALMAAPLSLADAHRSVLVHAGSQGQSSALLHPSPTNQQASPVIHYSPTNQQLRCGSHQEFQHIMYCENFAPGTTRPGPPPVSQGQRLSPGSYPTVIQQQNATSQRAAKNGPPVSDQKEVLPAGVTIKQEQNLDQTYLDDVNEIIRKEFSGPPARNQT
UniProt Q7L592: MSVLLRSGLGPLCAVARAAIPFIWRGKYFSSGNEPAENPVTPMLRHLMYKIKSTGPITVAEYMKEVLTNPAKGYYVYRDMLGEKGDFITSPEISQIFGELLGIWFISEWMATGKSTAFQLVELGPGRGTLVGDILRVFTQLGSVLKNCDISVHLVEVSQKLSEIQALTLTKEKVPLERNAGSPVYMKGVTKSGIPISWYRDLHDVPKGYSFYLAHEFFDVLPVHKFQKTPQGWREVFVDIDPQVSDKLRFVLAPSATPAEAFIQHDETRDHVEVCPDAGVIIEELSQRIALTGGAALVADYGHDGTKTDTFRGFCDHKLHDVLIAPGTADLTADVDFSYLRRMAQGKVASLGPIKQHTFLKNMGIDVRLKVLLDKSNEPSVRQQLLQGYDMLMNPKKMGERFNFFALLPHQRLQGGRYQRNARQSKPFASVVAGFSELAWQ
UniProt P52849: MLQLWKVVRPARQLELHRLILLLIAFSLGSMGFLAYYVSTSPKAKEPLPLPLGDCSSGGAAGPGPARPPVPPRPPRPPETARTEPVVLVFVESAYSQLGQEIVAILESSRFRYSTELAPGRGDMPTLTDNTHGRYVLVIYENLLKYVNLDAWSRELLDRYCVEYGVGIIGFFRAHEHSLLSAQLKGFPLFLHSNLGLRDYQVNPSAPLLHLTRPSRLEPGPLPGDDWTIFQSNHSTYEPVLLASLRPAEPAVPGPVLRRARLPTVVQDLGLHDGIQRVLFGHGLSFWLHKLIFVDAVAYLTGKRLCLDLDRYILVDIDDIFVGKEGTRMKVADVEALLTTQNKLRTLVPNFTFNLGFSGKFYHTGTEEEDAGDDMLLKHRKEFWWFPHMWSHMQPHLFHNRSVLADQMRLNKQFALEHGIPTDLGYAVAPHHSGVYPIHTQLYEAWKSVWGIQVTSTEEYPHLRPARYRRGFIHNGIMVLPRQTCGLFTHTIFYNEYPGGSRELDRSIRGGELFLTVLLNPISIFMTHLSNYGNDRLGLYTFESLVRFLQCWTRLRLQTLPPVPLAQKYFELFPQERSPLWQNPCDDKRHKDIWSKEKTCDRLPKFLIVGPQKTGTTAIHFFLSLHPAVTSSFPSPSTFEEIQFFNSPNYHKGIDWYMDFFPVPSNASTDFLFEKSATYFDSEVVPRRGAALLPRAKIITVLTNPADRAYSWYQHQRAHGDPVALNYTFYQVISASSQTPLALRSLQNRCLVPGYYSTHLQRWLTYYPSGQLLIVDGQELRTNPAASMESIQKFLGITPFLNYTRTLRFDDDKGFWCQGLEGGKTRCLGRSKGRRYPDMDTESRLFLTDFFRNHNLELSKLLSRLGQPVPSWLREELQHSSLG
UniProt Q9UHB4: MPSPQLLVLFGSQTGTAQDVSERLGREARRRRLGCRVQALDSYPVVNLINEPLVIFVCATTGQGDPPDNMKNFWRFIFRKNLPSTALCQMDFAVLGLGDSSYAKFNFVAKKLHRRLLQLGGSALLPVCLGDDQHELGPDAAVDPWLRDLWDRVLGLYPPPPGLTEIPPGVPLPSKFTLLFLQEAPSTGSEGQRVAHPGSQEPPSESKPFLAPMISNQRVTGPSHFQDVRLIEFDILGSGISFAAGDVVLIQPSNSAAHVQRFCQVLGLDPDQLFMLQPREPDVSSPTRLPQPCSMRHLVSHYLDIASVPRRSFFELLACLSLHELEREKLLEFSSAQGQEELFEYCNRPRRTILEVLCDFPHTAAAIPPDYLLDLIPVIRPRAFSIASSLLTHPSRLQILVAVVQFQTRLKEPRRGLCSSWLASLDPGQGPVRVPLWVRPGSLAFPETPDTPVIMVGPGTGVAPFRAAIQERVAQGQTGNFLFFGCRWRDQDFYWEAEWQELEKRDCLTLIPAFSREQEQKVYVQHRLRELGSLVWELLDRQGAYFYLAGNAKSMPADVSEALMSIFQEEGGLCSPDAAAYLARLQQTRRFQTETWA
UniProt Q9UMX5: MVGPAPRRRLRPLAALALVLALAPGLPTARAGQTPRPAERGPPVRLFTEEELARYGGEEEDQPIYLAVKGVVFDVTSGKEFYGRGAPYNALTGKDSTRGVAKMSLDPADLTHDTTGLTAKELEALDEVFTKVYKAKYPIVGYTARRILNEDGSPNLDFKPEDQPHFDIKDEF
UniProt P25208: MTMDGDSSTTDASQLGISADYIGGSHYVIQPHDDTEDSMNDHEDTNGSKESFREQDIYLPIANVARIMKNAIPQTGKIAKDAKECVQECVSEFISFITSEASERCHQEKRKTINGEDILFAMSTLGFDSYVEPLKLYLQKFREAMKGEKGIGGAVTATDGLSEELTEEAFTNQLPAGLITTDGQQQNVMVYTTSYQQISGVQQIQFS
UniProt P17568, whole entry, looked up: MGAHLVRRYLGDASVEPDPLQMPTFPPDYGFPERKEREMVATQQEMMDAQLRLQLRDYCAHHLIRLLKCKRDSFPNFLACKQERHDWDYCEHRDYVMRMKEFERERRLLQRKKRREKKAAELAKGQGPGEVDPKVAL
UniProt Q9Y2I1: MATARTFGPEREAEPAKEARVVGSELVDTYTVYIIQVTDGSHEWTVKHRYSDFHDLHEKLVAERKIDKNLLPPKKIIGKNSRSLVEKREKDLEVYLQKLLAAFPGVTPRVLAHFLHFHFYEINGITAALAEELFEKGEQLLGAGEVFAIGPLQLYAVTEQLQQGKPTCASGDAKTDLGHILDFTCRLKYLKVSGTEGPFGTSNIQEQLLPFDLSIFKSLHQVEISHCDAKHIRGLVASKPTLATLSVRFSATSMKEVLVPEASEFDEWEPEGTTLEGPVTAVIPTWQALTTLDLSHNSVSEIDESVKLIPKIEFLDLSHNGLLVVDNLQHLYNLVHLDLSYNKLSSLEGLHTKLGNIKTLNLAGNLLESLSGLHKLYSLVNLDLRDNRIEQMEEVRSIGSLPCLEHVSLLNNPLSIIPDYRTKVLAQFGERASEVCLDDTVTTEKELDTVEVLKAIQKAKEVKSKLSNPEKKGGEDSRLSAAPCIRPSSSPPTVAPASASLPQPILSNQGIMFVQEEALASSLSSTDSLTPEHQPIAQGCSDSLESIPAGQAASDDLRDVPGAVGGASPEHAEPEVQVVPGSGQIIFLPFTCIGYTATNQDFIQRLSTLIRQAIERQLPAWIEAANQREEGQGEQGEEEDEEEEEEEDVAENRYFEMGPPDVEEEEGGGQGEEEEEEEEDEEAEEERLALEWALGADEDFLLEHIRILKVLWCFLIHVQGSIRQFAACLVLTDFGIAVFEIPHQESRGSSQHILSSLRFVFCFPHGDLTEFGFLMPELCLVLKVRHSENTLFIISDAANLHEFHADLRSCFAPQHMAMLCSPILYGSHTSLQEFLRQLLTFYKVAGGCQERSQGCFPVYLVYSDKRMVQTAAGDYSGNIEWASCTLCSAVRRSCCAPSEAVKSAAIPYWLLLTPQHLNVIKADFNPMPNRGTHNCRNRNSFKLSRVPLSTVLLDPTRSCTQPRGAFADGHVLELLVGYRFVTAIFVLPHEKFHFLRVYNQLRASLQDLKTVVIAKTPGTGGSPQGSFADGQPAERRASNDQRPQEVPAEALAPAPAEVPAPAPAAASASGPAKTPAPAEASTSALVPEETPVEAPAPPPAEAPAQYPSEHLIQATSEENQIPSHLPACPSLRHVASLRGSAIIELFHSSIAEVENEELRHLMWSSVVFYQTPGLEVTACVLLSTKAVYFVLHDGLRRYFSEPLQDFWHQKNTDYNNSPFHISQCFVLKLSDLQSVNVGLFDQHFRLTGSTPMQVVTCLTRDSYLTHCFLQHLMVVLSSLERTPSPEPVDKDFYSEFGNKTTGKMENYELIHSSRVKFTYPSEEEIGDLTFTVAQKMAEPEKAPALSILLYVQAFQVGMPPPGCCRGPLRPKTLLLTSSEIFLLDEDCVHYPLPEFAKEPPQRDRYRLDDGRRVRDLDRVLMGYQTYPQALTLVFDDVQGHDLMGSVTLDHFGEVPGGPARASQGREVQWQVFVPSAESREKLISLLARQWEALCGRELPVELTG

What was measured:
Assay in all cases: log2 fold change, soluble protein after heating vs DMSO (PISA); higher = thermal stabilisation; K562 lysate, 10 uM; active = over 0.2 and 3.5 SD of the protein, either way, in both replicates (recomputed)
[1] = compound: CS(=O)(=O)CCNCc1ccc(-c2ccc3ncnc(Nc4ccc(OCc5cccc(F)c5)c(Cl)c4)c3c2)o1 [lapatinib]
Summary of the method: (§1)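 Dounce homogenisation of K562 pellets in PBS pH 7.4 with 1 mM MgCl2 produced a crude extract, used at 1 mg/mL protein. Exposure to 10 μM compound lasted 30 min, and aliquots were then heated for 3 min across 48°C-58°C, pooled and brought to 0.5% NP-40 at 4°C. The supernatant after 21,000xg for 90 min was quantified by TMTpro 16plex LC-MS/MS with channel sums equalised. Duplicate values are given as log-two fold change in thermal stability relative to solvent controls.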

[2] = compound: CS(=O)(=O)N1CCN(Cc2cc3nc(-c4cccc5[nH]ncc45)nc(N4CCOCC4)c3s2)CC1 [pictilisib]
Summary of the method: as §1

[3] = compound: C[C@@H](Oc1cc(-c2cnn(C3CCNCC3)c2)cnc1N)c1c(Cl)ccc(F)c1Cl [crizotinib]
Summary of the method: as §1

[4] = compound: C[C@H](C1=CC=C(C=C1)C(=O)NC2=C3C=CNC3=NC=C2)N
Summary of the method: as §1

[5] = compound: C[C@H](Nc1ncnc2nc[nH]c12)c1cc2cccc(Cl)c2c(=O)n1-c1ccccc1 [duvelisib]
Summary of the method: as §1

[6] = compound: Cc1cc(Nc2cc(CN3CCOCC3)c3nc(C)c(Cc4ccc(Cl)cc4F)n3n2)n[nH]1 [gandotinib]
Summary of the method: as §1

[7] = compound: Cc1cc(Nc2cc(N3CCN(C)CC3)nc(Sc3ccc(NC(=O)C4CC4)cc3)n2)n[nH]1 [tozasertib]
Summary of the method: as §1

[8] = compound: Cc1ccc(-n2nc(C(C)(C)C)cc2NC(=O)Nc2ccc(OCCN3CCOCC3)c3ccccc23)cc1 [doramapimod]
Summary of the method: as §1

[9] = compound: Cc1ccc(NC(=O)c2ccc(CN3CC[C@H](N(C)C)C3)c(C(F)(F)F)c2)cc1Nc1nccc(-c2cncnc2)n1 [bafetinib]
Summary of the method: as §1

[10] = compound: Cc1cccc(CC(=O)N2CCc3c2ccc(-c2cn(C)c4ncnc(N)c24)c3F)n1
Summary of the method: as §1

[11] = compound: Cc1cn(-c2cc(NC(=O)c3ccc(C)c(Nc4nccc(-c5cccnc5)n4)c3)cc(C(F)(F)F)c2)cn1 [nilotinib]
Summary of the method: as §1

[12] = compound: Cc1nc(Nc2n[nH]c3c2CN(C(=O)N[C@H](CN(C)C)c2ccccc2)C3(C)C)c2sccc2n1
Summary of the method: as §1

[13] = compound: Cc1nc(Nc2ncc(C(=O)Nc3c(C)cccc3Cl)s2)cc(N2CCN(CCO)CC2)n1 [dasatinib]
Summary of the method: as §1

[14] = compound: Cc1ncc(-c2ccnc(Nc3ccc(S(C)(=O)=O)cc3)n2)n1C(C)C
Summary of the method: as §1

[15] = compound: Cn1cc(-c2ccc3c(c2)CCN3C(=O)Cc2cccc(C(F)(F)F)c2)c2c(N)ncnc21
Summary of the method: as §1

[16] = compound: Cn1cc(CNCC2CCN(c3ncc(C(=O)NO)cn3)CC2)c2ccccc21 [quisinostat]
Summary of the method: as §1

[17] = compound: Cn1cncc1[C@@](N)(c1ccc(Cl)cc1)c1ccc2c(c1)c(-c1cccc(Cl)c1)cc(=O)n2C [tipifarnib]
Summary of the method: as §1

[18] = compound: NC(=O)Nc1cc(-c2cccc(F)c2)sc1C(=O)N[C@H]1CCCNC1
Summary of the method: as §1

[19] = compound: NC(=O)c1cnc(N[C@@H]2CCCC[C@@H]2N)nc1Nc1cccc(-n2nccn2)c1
Summary of the method: as §1

[20] = compound: NC1(c2ccc(-c3nc4ccn5c(=O)[nH]nc5c4cc3-c3ccccc3)cc2)CCC1
Summary of the method: as §1

Measured: log2 fold change

NDUFB5 (UniProt O43674)
inactive: [1] -0.019 | [2] 0.016 | [3] 0.02 | [4] 0.095 | [5] -0.002 | [6] -0.048 | [7] 0.058 | [8] 0.005 | [9] -0.04 | [10] -0.012 | [11] 0.002 | [12] -0.013 | [13] -0.012 | [14] 0.017 | [15] 0.008 | [16] 0.03 | [17] 0.015 | [18] -0.057 | [19] -0.003 | [20] 0.04

NDUFAF1 (UniProt Q9Y375)
inactive: [1] -0.015 | [2] -0.008 | [3] -0.066 | [4] -0.071 | [5] -0.015 | [6] 0.049 | [7] -0.023 | [8] -0.11 | [9] 0.048 | [10] 0.035 | [11] 0.121 | [12] -0.037 | [13] 0.006 | [14] 0.003 | [15] -0.037 | [16] -0.134 | [17] -0.014 | [18] 0.036 | [19] 0.031 | [20] 0.076

NDUFS1 isoform 2 (UniProt P28331)
inactive: [1] 0.023 | [2] -0.014 | [3] 0.034 | [4] 0.009 | [5] -0.01 | [6] -0.006 | [7] 0.03 | [8] 0.024 | [9] -0.013 | [10] -0.006 | [11] 0.005 | [12] -0.001 | [13] 0.013 | [14] -0.021 | [15] 0.009 | [16] 0.112 | [17] -0.002 | [18] -0.018 | [19] 0.003 | [20] 0.006

Reprinted from the entries so far (two entries):
NDUFB5 (UniProt O43674)
inactive: [1] -0.019 | [2] 0.016 | [3] 0.02 | [4] 0.095 | [5] -0.002 | [6] -0.048 | [7] 0.058 | [8] 0.005 | [9] -0.04 | [10] -0.012 | [11] 0.002 | [12] -0.013 | [13] -0.012 | [14] 0.017 | [15] 0.008 | [16] 0.03 | [17] 0.015 | [18] -0.057 | [19] -0.003 | [20] 0.04

NDUFAF1 (UniProt Q9Y375)
inactive: [1] -0.015 | [2] -0.008 | [3] -0.066 | [4] -0.071 | [5] -0.015 | [6] 0.049 | [7] -0.023 | [8] -0.11 | [9] 0.048 | [10] 0.035 | [11] 0.121 | [12] -0.037 | [13] 0.006 | [14] 0.003 | [15] -0.037 | [16] -0.134 | [17] -0.014 | [18] 0.036 | [19] 0.031 | [20] 0.076

Next results

NLE1 (UniProt Q9NVX2)
inactive: [1] 0.028 | [2] -0.016 | [3] -0.001 | [4] 0.002 | [5] 0.04 | [6] 0.006 | [7] -0.016 | [8] 0.034 | [9] -0.001 | [10] -0.042 | [11] 0.013 | [12] -0.005 | [13] -0.027 | [14] 0.038 | [15] -0.026 | [16] 0.02 | [17] 0.044 | [18] -0.034 | [19] 0.01 | [20] -0.019

NFATC2 (UniProt Q13469)
inactive: [1] -0.003 | [2] 0.03 | [3] -0.021 | [4] 0.085 | [5] -0.017 | [6] 0.133 | [7] 0 | [8] 0.059 | [9] -0.02 | [10] 0.117 | [11] -0.001 | [12] -0.052 | [13] -0.033 | [14] 0.061 | [15] -0.001 | [16] -0.133 | [17] -0.021 | [18] 0.024 | [19] -0.025 | [20] -0.023

NDUFA12 (UniProt Q9UI09)
inactive: [1] -0.083 | [2] -0.035 | [3] -0.015 | [4] -0.057 | [5] 0.051 | [6] 0.024 | [7] 0.019 | [8] -0.001 | [9] 0.062 | [10] 0.054 | [11] -0.022 | [12] -0.031 | [13] -0.055 | [14] -0.028 | [15] -0.034 | [16] -0.033 | [17] -0.053 | [18] 0.04 | [19] -0.041 | [20] 0.029

NDUFAF7 (UniProt Q7L592)
inactive: [1] 0.035 | [2] -0.045 | [3] -0.047 | [4] 0.027 | [5] -0.07 | [6] -0.065 | [7] 0.074 | [8] 0.016 | [9] 0.006 | [10] -0.012 | [11] 0.068 | [12] -0.06 | [13] 0 | [14] 0.016 | [15] -0.026 | [16] 0.002 | [17] -0.01 | [18] 0.01 | [19] -0.03 | [20] 0.014

NDST2 (UniProt P52849)
inactive: [1] -0.06 | [2] 0.267 | [3] -0.038 | [4] 0.172 | [5] 0.023 | [6] -0.079 | [7] -0.155 | [8] 0.144 | [9] 0.15 | [10] 0.005 | [11] -0.006 | [12] -0.058 | [13] 0.059 | [14] -0.087 | [15] -0.106 | [16] 0.117 | [17] -0.083 | [18] -0.065 | [19] 0.01 | [20] -0.058

NDOR1 isoform 2 (UniProt Q9UHB4)
inactive: [1] 0.197 | [2] -0.146 | [3] 0.022 | [4] -0.057 | [5] -0.05 | [6] -0.011 | [7] -0.028 | [8] -0.009 | [9] 0.007 | [10] 0.075 | [11] 0.041 | [12] 0.045 | [13] -0.039 | [14] 0.035 | [15] 0.056 | [16] 0.008 | [17] -0.016 | [18] -0.02 | [19] 0.049 | [20] -0.035

NIPBL (UniProt Q6KC79)
inactive: [1] -0.03 | [2] -0.081 | [3] -0.034 | [4] 0.039 | [5] 0 | [6] -0.094 | [7] -0.005 | [8] 0.033 | [9] 0.001 | [10] 0.016 | [11] 0.06 | [12] -0.002 | [13] -0.037 | [14] 0.019 | [15] 0.091 | [16] -0.043 | [17] 0.014 | [18] 0.02 | [19] 0.003 | [20] 0.018

NENF (UniProt Q9UMX5)
inactive: [1] -0.028 | [2] -0.001 | [3] 0.026 | [4] 0.046 | [5] 0.05 | [6] -0.046 | [7] 0.004 | [8] 0.011 | [9] 0.03 | [10] -0.034 | [11] -0.051 | [12] 0.032 | [13] -0.001 | [14] -0.023 | [15] -0.036 | [16] -0.078 | [17] 0.001 | [18] -0.007 | [19] -0.013 | [20] 0.011

NFYB (UniProt P25208)
inactive: [1] 0.06 | [2] 0.008 | [3] 0.021 | [4] 0.054 | [5] -0.002 | [6] 0.09 | [7] 0.05 | [8] 0.009 | [9] 0.072 | [10] -0.092 | [11] -0.024 | [12] 0.037 | [13] 0.047 | [14] 0.036 | [15] 0.016 | [16] -0.024 | [17] -0.005 | [18] -0.025 | [19] 0.077 | [20] -0.063

NDUFB7 (UniProt P17568)
inactive: [1] 0.034 | [2] 0.074 | [3] -0.071 | [4] 0.241 | [5] -0.055 | [6] -0.038 | [7] 0.125 | [8] -0.015 | [9] 0.046 | [10] -0.078 | [11] 0.229 | [12] 0.015 | [13] 0.034 | [14] -0.112 | [15] -0.042 | [16] -0.014 | [17] -0.067 | [18] 0.009 | [19] 0.031 | [20] -0.038

NISCH (UniProt Q9Y2I1)
inactive: [1] 0.026 | [2] -0.06 | [3] -0.036 | [4] 0.024 | [5] -0.03 | [6] -0.065 | [7] -0.001 | [8] 0.002 | [9] 0.008 | [10] -0.037 | [11] 0.029 | [12] 0.014 | [13] 0.003 | [14] -0.041 | [15] 0.049 | [16] -0.013 | [17] 0.024 | [18] 0.036 | [19] 0.02 | [20] 0.012

NEBL (UniProt O76041)
inactive: [1] 0.054 | [2] -0.046 | [3] 0.09 | [4] 0.106 | [5] 0.023 | [6] -0.204 | [7] 0.01 | [8] -0.006 | [9] -0.037 | [10] -0.076 | [11] -0.024 | [12] 0.019 | [13] 0.089 | [14] 0.032 | [15] -0.007 | [16] -0.045 | [17] 0.008 | [18] -0.065 | [19] -0.018 | [20] -0.03

NDUFS3 (UniProt O75489)
inactive: [1] -0.017 | [2] -0.009 | [3] 0.01 | [4] 0.008 | [5] -0.03 | [6] -0.056 | [7] -0.005 | [8] -0.063 | [9] -0.01 | [10] 0.007 | [11] -0.007 | [12] -0.033 | [13] 0.023 | [14] -0.017 | [15] 0.025 | [16] 0.069 | [17] 0.005 | [18] -0.013 | [19] 0.001 | [20] 0.026
